Data from the supplement of paper PMC12823440, “Inhibitors supercharge kinase turnover through native proteolytic circuits” (Nature, 2025).
The list shows a part of the results. Hit calls seldom repeat between salt and free forms of one compound.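 In K562 cells expressing nanoluciferase-fused kinases, luminescence was recorded at 4 h intervals between 2 and 18 h, normalized as percent of control with DMSO at 100% and a positive control at 0%. A significant (2 sigma) signal drop marks a time point as decreased. The authors' rule for a hit is not shown and takes in more than the number of time points.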

By UniProt entry, the sequences of proteins in these tests, tags left out. Where a name states a change or a piece, a line headed by the entry shows the natural chain unless it says otherwise.
UniProt Q9Y616: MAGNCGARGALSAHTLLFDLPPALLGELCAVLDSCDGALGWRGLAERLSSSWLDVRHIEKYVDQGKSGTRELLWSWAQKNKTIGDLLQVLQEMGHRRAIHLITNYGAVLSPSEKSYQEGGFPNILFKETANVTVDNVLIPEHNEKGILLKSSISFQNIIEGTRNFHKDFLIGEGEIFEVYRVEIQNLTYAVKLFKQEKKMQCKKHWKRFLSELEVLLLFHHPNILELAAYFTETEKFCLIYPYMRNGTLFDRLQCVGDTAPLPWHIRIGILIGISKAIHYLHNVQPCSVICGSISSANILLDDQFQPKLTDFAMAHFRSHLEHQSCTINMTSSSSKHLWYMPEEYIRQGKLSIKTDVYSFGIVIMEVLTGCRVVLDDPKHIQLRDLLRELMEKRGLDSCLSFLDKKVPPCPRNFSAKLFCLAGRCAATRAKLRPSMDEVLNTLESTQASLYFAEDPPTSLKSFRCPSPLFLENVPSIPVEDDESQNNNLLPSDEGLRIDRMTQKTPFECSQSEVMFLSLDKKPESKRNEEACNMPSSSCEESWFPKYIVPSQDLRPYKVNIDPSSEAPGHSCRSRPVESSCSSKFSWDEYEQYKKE
UniProt P23458: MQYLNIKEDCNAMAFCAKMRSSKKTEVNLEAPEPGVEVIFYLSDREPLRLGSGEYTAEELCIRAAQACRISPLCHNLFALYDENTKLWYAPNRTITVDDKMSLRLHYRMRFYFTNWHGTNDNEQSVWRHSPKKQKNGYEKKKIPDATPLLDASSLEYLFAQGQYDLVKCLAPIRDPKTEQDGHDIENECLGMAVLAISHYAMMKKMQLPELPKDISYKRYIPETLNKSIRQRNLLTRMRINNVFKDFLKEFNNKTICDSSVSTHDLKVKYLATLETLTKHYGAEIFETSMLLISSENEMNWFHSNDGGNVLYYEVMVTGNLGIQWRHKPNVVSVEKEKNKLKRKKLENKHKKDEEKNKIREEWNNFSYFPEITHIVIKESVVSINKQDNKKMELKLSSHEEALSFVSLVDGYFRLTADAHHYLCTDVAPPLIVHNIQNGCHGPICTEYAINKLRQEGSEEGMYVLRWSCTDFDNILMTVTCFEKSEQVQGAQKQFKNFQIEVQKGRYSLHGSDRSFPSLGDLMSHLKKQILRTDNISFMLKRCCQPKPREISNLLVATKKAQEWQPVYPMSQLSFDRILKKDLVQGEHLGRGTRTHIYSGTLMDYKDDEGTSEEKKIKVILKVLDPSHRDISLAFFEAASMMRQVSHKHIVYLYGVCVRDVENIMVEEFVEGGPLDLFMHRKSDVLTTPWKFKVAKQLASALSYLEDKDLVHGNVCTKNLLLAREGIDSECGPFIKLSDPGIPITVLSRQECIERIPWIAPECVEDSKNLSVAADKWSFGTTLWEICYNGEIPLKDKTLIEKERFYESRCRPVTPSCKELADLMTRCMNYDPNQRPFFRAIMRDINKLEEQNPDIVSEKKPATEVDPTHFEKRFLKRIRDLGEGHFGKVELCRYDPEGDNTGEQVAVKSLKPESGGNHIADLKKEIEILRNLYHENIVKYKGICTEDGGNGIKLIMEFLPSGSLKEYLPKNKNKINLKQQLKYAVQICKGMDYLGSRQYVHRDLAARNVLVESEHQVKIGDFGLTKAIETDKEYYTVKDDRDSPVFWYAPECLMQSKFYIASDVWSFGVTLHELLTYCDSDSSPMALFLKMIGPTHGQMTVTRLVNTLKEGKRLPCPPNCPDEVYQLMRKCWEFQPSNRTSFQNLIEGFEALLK
UniProt P06239: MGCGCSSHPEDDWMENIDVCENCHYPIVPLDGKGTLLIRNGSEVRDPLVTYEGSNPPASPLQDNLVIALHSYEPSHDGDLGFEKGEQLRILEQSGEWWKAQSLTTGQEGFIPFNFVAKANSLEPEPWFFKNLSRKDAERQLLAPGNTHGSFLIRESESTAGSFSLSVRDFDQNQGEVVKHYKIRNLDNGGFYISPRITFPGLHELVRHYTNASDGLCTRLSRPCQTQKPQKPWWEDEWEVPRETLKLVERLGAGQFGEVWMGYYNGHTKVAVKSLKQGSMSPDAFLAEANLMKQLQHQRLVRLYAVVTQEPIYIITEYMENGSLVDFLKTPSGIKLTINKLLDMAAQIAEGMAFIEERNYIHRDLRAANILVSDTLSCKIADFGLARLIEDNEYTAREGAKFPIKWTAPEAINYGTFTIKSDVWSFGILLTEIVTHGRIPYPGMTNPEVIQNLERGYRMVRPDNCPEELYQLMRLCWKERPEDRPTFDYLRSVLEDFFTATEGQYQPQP
UniProt P53667: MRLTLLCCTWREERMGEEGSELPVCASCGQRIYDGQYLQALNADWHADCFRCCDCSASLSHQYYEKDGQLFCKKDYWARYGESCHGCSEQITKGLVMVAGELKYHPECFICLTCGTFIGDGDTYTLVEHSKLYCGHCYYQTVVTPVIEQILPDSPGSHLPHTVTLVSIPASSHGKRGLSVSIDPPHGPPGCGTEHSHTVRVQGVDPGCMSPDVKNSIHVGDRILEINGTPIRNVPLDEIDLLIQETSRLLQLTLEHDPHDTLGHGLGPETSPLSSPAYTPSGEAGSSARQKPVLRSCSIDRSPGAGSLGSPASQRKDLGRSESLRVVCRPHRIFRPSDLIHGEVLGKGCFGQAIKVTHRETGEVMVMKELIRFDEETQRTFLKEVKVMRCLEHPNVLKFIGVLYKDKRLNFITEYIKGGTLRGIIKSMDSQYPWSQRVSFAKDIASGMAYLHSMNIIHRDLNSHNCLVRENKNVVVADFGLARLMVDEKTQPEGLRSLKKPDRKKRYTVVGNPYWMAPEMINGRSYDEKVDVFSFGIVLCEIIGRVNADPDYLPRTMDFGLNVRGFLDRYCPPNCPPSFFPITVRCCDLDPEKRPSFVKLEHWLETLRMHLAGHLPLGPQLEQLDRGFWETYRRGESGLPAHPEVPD
UniProt P53671: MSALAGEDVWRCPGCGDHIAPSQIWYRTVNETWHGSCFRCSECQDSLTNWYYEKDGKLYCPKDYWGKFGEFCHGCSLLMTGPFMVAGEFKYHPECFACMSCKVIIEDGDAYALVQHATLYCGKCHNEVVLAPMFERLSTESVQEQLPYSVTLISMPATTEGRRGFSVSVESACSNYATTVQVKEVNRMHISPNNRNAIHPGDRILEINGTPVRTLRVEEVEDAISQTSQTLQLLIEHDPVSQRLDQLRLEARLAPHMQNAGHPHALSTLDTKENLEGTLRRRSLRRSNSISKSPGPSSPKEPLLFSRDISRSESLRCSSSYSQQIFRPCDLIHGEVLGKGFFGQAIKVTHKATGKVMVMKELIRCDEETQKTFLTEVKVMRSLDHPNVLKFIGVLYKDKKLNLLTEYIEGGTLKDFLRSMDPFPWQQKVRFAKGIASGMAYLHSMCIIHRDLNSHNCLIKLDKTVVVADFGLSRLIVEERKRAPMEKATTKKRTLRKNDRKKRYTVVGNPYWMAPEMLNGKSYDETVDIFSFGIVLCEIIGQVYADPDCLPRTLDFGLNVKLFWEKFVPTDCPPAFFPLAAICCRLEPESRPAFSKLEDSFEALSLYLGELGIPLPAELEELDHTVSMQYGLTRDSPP
UniProt Q8IWU2: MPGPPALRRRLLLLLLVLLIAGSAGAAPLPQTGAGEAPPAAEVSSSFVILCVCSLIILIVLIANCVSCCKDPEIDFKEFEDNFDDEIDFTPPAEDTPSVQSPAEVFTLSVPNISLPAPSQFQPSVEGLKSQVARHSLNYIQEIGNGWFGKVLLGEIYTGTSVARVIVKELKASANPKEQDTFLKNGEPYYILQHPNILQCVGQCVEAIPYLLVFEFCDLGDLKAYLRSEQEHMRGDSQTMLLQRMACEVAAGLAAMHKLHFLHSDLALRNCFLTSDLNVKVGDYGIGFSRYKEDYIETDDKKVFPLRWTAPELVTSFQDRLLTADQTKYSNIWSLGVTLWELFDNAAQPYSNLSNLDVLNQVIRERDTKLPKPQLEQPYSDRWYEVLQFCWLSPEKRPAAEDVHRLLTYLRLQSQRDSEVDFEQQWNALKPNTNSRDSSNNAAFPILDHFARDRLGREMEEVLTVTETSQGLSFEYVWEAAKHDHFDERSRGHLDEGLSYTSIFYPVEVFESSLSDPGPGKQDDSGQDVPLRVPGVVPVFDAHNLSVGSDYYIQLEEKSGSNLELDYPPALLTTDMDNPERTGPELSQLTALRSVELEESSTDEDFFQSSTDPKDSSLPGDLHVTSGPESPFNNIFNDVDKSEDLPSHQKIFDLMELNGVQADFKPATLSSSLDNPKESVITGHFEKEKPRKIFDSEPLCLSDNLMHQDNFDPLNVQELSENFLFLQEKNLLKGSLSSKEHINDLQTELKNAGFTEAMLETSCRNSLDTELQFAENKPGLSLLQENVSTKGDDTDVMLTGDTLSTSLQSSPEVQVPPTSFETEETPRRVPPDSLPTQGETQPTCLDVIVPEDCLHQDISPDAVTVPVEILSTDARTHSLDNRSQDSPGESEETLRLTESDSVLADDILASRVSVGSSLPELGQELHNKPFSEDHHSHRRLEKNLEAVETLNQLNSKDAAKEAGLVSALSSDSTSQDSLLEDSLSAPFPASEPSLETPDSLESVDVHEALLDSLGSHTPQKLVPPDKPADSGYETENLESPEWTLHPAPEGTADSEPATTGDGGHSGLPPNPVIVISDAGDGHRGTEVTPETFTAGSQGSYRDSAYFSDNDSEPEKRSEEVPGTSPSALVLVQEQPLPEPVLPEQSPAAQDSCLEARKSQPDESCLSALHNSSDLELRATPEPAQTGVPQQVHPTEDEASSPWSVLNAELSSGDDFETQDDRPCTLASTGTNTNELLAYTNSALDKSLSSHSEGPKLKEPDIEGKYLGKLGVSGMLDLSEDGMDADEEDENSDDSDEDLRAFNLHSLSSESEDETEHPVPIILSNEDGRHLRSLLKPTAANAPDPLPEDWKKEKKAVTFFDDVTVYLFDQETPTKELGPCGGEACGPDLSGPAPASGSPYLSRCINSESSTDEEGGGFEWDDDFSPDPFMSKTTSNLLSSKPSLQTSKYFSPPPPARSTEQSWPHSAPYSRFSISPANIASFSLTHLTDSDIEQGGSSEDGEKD
UniProt P07948: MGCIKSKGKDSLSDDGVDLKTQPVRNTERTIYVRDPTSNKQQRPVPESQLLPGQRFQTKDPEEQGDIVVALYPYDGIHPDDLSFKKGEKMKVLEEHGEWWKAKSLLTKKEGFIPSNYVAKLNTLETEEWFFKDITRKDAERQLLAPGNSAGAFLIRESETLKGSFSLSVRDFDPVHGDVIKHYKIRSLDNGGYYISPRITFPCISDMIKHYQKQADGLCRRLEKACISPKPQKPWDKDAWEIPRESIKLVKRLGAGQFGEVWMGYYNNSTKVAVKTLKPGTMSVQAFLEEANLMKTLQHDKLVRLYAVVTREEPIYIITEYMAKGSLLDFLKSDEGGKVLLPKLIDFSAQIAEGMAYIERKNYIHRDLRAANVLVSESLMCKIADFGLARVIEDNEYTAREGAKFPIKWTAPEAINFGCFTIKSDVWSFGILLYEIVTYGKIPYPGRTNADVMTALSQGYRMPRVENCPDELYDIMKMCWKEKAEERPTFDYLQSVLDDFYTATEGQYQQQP
UniProt Q12851: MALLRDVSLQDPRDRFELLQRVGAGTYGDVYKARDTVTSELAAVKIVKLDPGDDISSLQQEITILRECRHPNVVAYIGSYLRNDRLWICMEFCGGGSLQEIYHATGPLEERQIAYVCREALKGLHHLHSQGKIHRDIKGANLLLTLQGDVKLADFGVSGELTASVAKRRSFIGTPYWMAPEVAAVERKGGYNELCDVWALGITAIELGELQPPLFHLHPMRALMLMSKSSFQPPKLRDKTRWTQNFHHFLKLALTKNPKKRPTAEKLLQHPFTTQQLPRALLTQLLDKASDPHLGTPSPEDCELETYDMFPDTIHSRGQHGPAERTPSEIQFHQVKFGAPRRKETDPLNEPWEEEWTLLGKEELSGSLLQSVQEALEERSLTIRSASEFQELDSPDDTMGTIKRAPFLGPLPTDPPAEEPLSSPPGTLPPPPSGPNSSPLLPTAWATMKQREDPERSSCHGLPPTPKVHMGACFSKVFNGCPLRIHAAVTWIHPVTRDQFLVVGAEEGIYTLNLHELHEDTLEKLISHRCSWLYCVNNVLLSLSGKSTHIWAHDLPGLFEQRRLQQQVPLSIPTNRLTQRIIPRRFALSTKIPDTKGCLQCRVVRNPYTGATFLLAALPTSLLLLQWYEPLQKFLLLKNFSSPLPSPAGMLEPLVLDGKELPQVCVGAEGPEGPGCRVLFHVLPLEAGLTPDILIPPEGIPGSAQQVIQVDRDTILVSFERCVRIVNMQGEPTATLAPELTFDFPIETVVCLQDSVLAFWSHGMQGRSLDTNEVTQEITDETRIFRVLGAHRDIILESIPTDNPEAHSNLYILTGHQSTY

Legend:
Test in all cases: kinase-Nluc reporter destabilization hit call (1 = scored as downregulated) (binary); higher = compound decreases kinase abundance
Conditions in all cases: K562; 2-18 h
IRAK3 = IRAK3 (UniProt Q9Y616)
JAK1 = JAK1 (UniProt P23458)
LCK = LCK (UniProt P06239)
LIMK1 = LIMK1 (UniProt P53667)
LIMK2 = LIMK2 (UniProt P53671)
LMTK2 = LMTK2 (UniProt Q8IWU2)
LYN = LYN (UniProt P07948)
MAP2K1 = MAP2K1 (UniProt Q02750)
MAP2K2 = MAP2K2 (UniProt P36507)
MAP4K2 = MAP4K2 (UniProt Q12851)

Measured: kinase-Nluc reporter destabilization hit call

COc1cc(N2CCOCC2)ccc1Nc1ncc(Cl)c(Nc2ccccc2NS(C)(=O)=O)n1 (2.5 µM)
inactive: IRAK3 = 0 | JAK1 = 0 | LCK 0 | LIMK1 = 0 | LIMK2 = 0 | LMTK2 = 0 | LYN 0 | MAP2K1 = 0 | MAP2K2 = 0 | MAP4K2 = 0

COc1cc(-c2cn[nH]c2)ccc1C(=O)Nc1ccc2c(c1)CCNCC2 (10 µM)
inactive: IRAK3 = 0 | JAK1 = 0 | LCK 0 | LIMK1 = 0 | LIMK2 = 0 | LMTK2 = 0 | LYN 0 | MAP2K1 = 0 | MAP2K2 = 0 | MAP4K2 = 0

O=c1cc(-c2cccc3c2Sc2ccccc2S3)oc(N2CCOCC2)c1 (10 µM)
inactive: IRAK3 = 0 | JAK1 = 0 | LCK 0 | LIMK1 = 0 | LIMK2 = 0 | LMTK2 = 0 | LYN 0 | MAP2K1 = 0 | MAP2K2 = 0 | MAP4K2 = 0

CNC(=O)c1ccccc1Nc1nc(Nc2ccc3c(c2OC)CCC[C@H](N2CCN(CCO)CC2)C3)ncc1Cl (10 µM)
inactive: IRAK3 = 0 | JAK1 = 0 | LCK 0 | LIMK1 = 0 | LIMK2 = 0 | LMTK2 = 0 | LYN 0 | MAP2K1 = 0 | MAP2K2 = 0 | MAP4K2 = 0

O=C(Nc1cccc(C(F)(F)F)c1)c1cccc2cc(Oc3cc(CO)ncn3)ccc12 (10 µM)
inactive: IRAK3 = 0 | JAK1 = 0 | LCK 0 | LIMK1 = 0 | LIMK2 = 0 | LMTK2 = 0 | LYN 0 | MAP2K1 = 0 | MAP2K2 = 0 | MAP4K2 = 0

COc1ncccc1-c1cnn2ccc(N3CCN(C(=O)OC(C)C)CC3)nc12 (10 µM)
inactive: IRAK3 = 0 | JAK1 = 0 | LCK 0 | LIMK1 = 0 | LIMK2 = 0 | LMTK2 = 0 | LYN 0 | MAP2K1 = 0 | MAP2K2 = 0 | MAP4K2 = 0

CC(C)c1cccc(C(C)C)c1N1C(=O)c2ccc(N)cc2C1=O (2.5 µM)
inactive: IRAK3 = 0 | JAK1 = 0 | LCK 0 | LIMK1 = 0 | LIMK2 = 0 | LMTK2 = 0 | LYN 0 | MAP2K1 = 0 | MAP2K2 = 0 | MAP4K2 = 0

COc1cc2ncnc(-n3nc(-c4ccccn4)nc3N)c2cc1OC (10 µM)
inactive: IRAK3 = 0 | JAK1 = 0 | LCK 0 | LIMK1 = 0 | LIMK2 = 0 | LMTK2 = 0 | LYN 0 | MAP2K1 = 0 | MAP2K2 = 0 | MAP4K2 = 0

O=c1cc(N2CCOCC2)nc2c3ccccc3ccn12 [Compound 401] (10 µM)
inactive: IRAK3 = 0 | JAK1 = 0 | LCK 0 | LIMK1 = 0 | LIMK2 = 0 | LMTK2 = 0 | LYN 0 | MAP2K1 = 0 | MAP2K2 = 0 | MAP4K2 = 0

CC(C)CCNC(=O)c1ccc2c(c1)nc(Nc1n[nH]c3ccc(-c4ccccc4OC(F)(F)F)cc13)n2C1CCC(O)CC1 (stereo not drawn) [IRAK inhibitor 4 (trans)] (10 µM)
inactive: IRAK3 = 0 | JAK1 = 0 | LCK 0 | LIMK1 = 0 | LIMK2 = 0 | LMTK2 = 0 | LYN 0 | MAP2K1 = 0 | MAP2K2 = 0 | MAP4K2 = 0

C=CC(=O)Nc1cc(-n2c(=O)ccc3cnc4ccc(-c5ccc(NS(C)(=O)=O)cc5)cc4c32)ccc1C (10 µM)
inactive: IRAK3 = 0 | JAK1 = 0 | LCK 0 | LIMK1 = 0 | LIMK2 = 0 | LMTK2 = 0 | LYN 0 | MAP2K1 = 0 | MAP2K2 = 0 | MAP4K2 = 0

CCCCCCCCCCCCCCCCOP(=O)([O-])OCC[N+](C)(C)C [Miltefosine] (10 µM)
inactive: IRAK3 = 0 | JAK1 = 0 | LCK 0 | LIMK1 = 0 | LIMK2 = 0 | LMTK2 = 0 | LYN 0 | MAP2K1 = 0 | MAP2K2 = 0 | MAP4K2 = 0

C[C@@H]1CC(=O)c2c(ccc3c2C(=O)c2cccc(O)c2C3=O)C1 [Ochromycinone] (10 µM)
inactive: IRAK3 = 0 | JAK1 = 0 | LCK 0 | LIMK1 = 0 | LIMK2 = 0 | LMTK2 = 0 | LYN 0 | MAP2K1 = 0 | MAP2K2 = 0 | MAP4K2 = 0

CN1C(=O)[C@@H](NC(=O)c2n[nH]c(Cc3ccccc3)n2)COc2ccccc21 (10 µM)
inactive: IRAK3 = 0 | JAK1 = 0 | LCK 0 | LIMK1 = 0 | LIMK2 = 0 | LMTK2 = 0 | LYN 0 | MAP2K1 = 0 | MAP2K2 = 0 | MAP4K2 = 0

COc1ccc(S(=O)(=O)NCc2ccc(C(=O)NCCc3ccc(Cl)cn3)cc2)cc1 (10 µM)
inactive: IRAK3 = 0 | JAK1 = 0 | LCK 0 | LIMK1 = 0 | LIMK2 = 0 | LMTK2 = 0 | LYN 0 | MAP2K1 = 0 | MAP2K2 = 0 | MAP4K2 = 0

Oc1cc(O)c2c(c1)OC1(c3ccc(O)c(O)c3)Oc3cc(O)c4c(c3C2C1O)OC(c1ccc(O)c(O)c1)C(O)C4 (stereo not given) [Procyanidin A1] (10 µM)
inactive: IRAK3 = 0 | JAK1 = 0 | LCK 0 | LIMK1 = 0 | LIMK2 = 0 | LMTK2 = 0 | LYN 0 | MAP2K1 = 0 | MAP2K2 = 0 | MAP4K2 = 0

COc1nn(C)cc1Nc1nccc(-c2c[nH]c3c(NC(=O)[C@@H](C)N4CCN(C)CC4)cccc23)n1 (10 µM)
inactive: IRAK3 = 0 | JAK1 = 0 | LCK 0 | LIMK1 = 0 | LIMK2 = 0 | LMTK2 = 0 | LYN 0 | MAP2K1 = 0 | MAP2K2 = 0 | MAP4K2 = 0

Cc1cc2sc(NC(=O)Cc3ccccc3)nc2cc1Cl (10 µM)
inactive: IRAK3 = 0 | JAK1 = 0 | LCK 0 | LIMK1 = 0 | LIMK2 = 0 | LMTK2 = 0 | LYN 0 | MAP2K1 = 0 | MAP2K2 = 0 | MAP4K2 = 0

O=C(NCc1cccc(O)c1)Nc1nc(-c2ccncc2)cs1 (10 µM)
inactive: IRAK3 = 0 | JAK1 = 0 | LCK 0 | LIMK1 = 0 | LIMK2 = 0 | LMTK2 = 0 | LYN 0 | MAP2K1 = 0 | MAP2K2 = 0 | MAP4K2 = 0

CCn1c(=O)c(-c2cc[nH]n2)cc2c(C)nc(N)nc21 [Voxtalisib] (10 µM)
inactive: IRAK3 = 0 | JAK1 = 0 | LCK 0 | LIMK1 = 0 | LIMK2 = 0 | LMTK2 = 0 | LYN 0 | MAP2K1 = 0 | MAP2K2 = 0 | MAP4K2 = 0

CNc1nc(Nc2ccc(C(=O)N3CCOCC3)cc2OC)ncc1Cl (2.5 µM)
inactive: IRAK3 = 0 | JAK1 = 0 | LCK 0 | LIMK1 = 0 | LIMK2 = 0 | LMTK2 = 0 | LYN 0 | MAP2K1 = 0 | MAP2K2 = 0 | MAP4K2 = 0

Cc1nn(C)c2c1C(c1ccc(C(F)(F)F)cc1)C(C#N)=C(N)O2 (stereo not given) (10 µM)
inactive: IRAK3 = 0 | JAK1 = 0 | LCK 0 | LIMK1 = 0 | LIMK2 = 0 | LMTK2 = 0 | LYN 0 | MAP2K1 = 0 | MAP2K2 = 0 | MAP4K2 = 0

Cc1ccc(C(=O)Nc2sc(Nc3ccccc3)nc2C(N)=O)cc1 (10 µM)
inactive: IRAK3 = 0 | JAK1 = 0 | LCK 0 | LIMK1 = 0 | LIMK2 = 0 | LMTK2 = 0 | LYN 0 | MAP2K1 = 0 | MAP2K2 = 0 | MAP4K2 = 0

O[C@@H]1CO[C@H]2[C@@H]1OC[C@H]2Oc1nc2nc(-c3ccc(-c4ccccc4)cc3)c(Cl)cc2[nH]1 (10 µM)
inactive: IRAK3 = 0 | JAK1 = 0 | LCK 0 | LIMK1 = 0 | LIMK2 = 0 | LMTK2 = 0 | LYN 0 | MAP2K1 = 0 | MAP2K2 = 0 | MAP4K2 = 0

O=[N+]([O-])c1ccc2c(c1)S(=O)(=O)C=C2 [Stattic] (2.5 µM)
inactive: IRAK3 = 0 | JAK1 = 0 | LCK 0 | LIMK1 = 0 | LIMK2 = 0 | LMTK2 = 0 | LYN 0 | MAP2K1 = 0 | MAP2K2 = 0 | MAP4K2 = 0

O=C(NC1CCOCC1)c1ccc(-c2cc(-c3c[nH]nc3-c3ccccn3)ccn2)cc1 (10 µM)
inactive: IRAK3 = 0 | JAK1 = 0 | LCK 0 | LIMK1 = 0 | LIMK2 = 0 | LMTK2 = 0 | LYN 0 | MAP2K1 = 0 | MAP2K2 = 0 | MAP4K2 = 0

Cc1ccn2c(C(=O)C(=O)c3ccccc3)c(-c3ccccc3)nc2c1 (10 µM)
inactive: IRAK3 = 0 | JAK1 = 0 | LCK 0 | LIMK1 = 0 | LIMK2 = 0 | LMTK2 = 0 | LYN 0 | MAP2K1 = 0 | MAP2K2 = 0 | MAP4K2 = 0

Cc1cnc(NC2CCOCC2)nc1-n1cnc(C(=O)N[C@H](CN)c2cc(F)cc(Cl)c2)c1 (10 µM)
inactive: IRAK3 = 0 | JAK1 = 0 | LCK 0 | LIMK1 = 0 | LIMK2 = 0 | LMTK2 = 0 | LYN 0 | MAP2K1 = 0 | MAP2K2 = 0 | MAP4K2 = 0

2 consecutive records from above, for reference:
O=[N+]([O-])c1ccc2c(c1)S(=O)(=O)C=C2 [Stattic] (2.5 µM)
inactive: IRAK3 = 0 | JAK1 = 0 | LCK 0 | LIMK1 = 0 | LIMK2 = 0 | LMTK2 = 0 | LYN 0 | MAP2K1 = 0 | MAP2K2 = 0 | MAP4K2 = 0

O=C(NC1CCOCC1)c1ccc(-c2cc(-c3c[nH]nc3-c3ccccn3)ccn2)cc1 (10 µM)
inactive: IRAK3 = 0 | JAK1 = 0 | LCK 0 | LIMK1 = 0 | LIMK2 = 0 | LMTK2 = 0 | LYN 0 | MAP2K1 = 0 | MAP2K2 = 0 | MAP4K2 = 0
